The values that follow come from PMC11798907.

The chains behind the UniProt entries cited, without tags or fusion partners. Where a name states a change or a piece, a line headed by the entry shows the natural chain unless it says otherwise.
UniProt Q75KW2, entry or part of it: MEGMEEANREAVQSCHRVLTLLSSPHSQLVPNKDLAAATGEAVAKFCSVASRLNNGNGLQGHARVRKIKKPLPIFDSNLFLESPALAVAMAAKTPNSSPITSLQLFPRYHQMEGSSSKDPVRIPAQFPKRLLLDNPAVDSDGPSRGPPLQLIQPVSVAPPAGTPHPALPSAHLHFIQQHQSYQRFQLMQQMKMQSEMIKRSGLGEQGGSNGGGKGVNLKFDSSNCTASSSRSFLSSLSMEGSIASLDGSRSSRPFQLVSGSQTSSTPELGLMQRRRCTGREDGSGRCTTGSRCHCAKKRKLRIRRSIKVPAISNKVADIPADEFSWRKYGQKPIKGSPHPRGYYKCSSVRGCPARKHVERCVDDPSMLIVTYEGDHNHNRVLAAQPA
UniProt Q6QHD1: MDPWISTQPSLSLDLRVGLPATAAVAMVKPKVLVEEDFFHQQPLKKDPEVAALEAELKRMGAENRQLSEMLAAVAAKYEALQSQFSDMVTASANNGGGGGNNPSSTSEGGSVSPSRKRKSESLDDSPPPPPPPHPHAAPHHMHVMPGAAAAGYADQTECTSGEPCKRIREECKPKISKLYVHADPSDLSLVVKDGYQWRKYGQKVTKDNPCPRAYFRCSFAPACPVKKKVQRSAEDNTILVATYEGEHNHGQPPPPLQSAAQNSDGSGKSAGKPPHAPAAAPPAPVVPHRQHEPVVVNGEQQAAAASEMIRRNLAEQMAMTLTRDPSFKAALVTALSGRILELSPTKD

One data set addresses OsWRKY121 (Oryza sativa) (UniProt Q75KW2). As to the kind of experiment: EMSA. The conditions noted are these: LightShift Chemiluminescent EMSA kit protocol; 20 fmol biotin-labeled DNA, 4 pmol protein (where stated); pH and temperature not stated; recombinant protein; protein details: His-MBP (pDEST-HisMBP); label: 3'-biotin; probe letters rebuilt from the primers and the genome. (In general: Mobility shift assays separate free from complexed probe on a gel.)

A further data set deals with OsWRKY71 (Oryza sativa) (UniProt Q6QHD1). As to the kind of experiment: EMSA. The conditions noted are these: LightShift Chemiluminescent EMSA kit protocol; 20 fmol biotin-labeled DNA, 4 pmol protein (where stated); pH and temperature not stated; recombinant protein; protein details: His-MBP (pDEST-HisMBP); label: 3'-biotin; probe letters rebuilt from the primers and the genome.

The exact form of at least one protein or probe is not confirmed. For part of these data: Negatives hold for the conditions tested. For part of these data: At least one verdict was read from the data and is not stated in words by the source.

On to “ACCAGAGTTCTTTTTCCCCCTCTTCTACATAAACGAAAACAGCTTGTTGACTGGCTCCCTAGAGCTTTTTGTAAGTTGATCATCGAAGTAGCT (double strand) [OsNF-YC4 promoter P1]”, for which the binding result with OsWRKY121 (Oryza sativa) is “no binding”; in the data set with OsWRKY71 (Oryza sativa), “binds”.

As to “AGCATTATGATGGCTAAGGATTGTCCTTTCGTTCAGGAAAAGTACAAAATCAAGGAAAATGCAGA (double strand) [OsNF-YC4 promoter P4]”, the binding result with OsWRKY121 (Oryza sativa) is “no binding”.
